Test results published in patent publication US6339062B1 (Inkine Pharmaceutical Company, Inc., priority 1998, dated 2002).

Experiment: general procedure: Boc solid-phase peptide synthesis; Boc-Xaa-OCH2-PAM resin (0.2-0.8 mmole/g) or p-mBHA resin (0.2-0.7 mmole/g); dipropylcarbodiimide
Details: whole synthesis, analytical reverse-phase HPLC, scale of the general procedure 0.1 mmole, TFA salt

Row | Substance | final HPLC purity
1 | WSPCSVTCG (cysteine pairing not given here) | a purity of 90%
2 | WSPCSVTCG-NH2 (cysteine pairing not given here) | a purity of 90%

Where no end group is shown, it is not given here.
